# Reference: patent US20110002995A1, “PHARMACEUTICAL COMPOSITION FOR THE TREATMENT AND PREVENTION OF CARDIAC DISEASE” (MAZENCE INC., priority 2007, published 2011)
# System: TAC-induced heart hypertrophy
# Assay: Inhibitory effect on heart hypertrophy, TAC model (Experimental Example 1)
# Type: in vivo, C57BL/6J male mice
# Conditions: SHAM MB(+), 30 mg/kg
# Description: 8-week-old C57BL/6J male mice (n=40, 20-23 g, SLC, Japan) were purchased and subjected to transverse aortic constriction (TAC).
# The thorax was incised and the thymus was removed.
# 5 weeks after the operation of TAC for the heart failure model, a difference of a fractional shortening (F.S) value (%) with the control group was confirmed using echocardiogram, and the degree of heart failure induction and therapeutic effects were then determined.
# Further, left ventricular end-diastolic and systolic diameters were measured according to the standard method of the American Society for Echocardiography. Fractional shortening (%) which is an indicator of the ventricular contractility is calculated according to the following equation.
# F.S=(left ventricular end-diastolic diameter)−(left ventricular end-systolic diameter)/left ventricular end-diastolic diameter
# Among compounds of Formula 1, inhibitory effects of 7,8-dihydro-2,2-dimethyl-2H-naphtho(2,3-b)dihydropyran-7,8-dione (hereinafter, referred to as “MB660”) on heart hypertrophy and heart failure were examined.
# 2 days after TAC treatment, animals were given test samples. Induction of heart hypertrophy was carried out over 2 weeks after TAC treatment. Induction of heart failure was carried out over 5 weeks after TAC treatment.
smiles,measurement,setting,value
"CC1(C)CCc2cc3c(cc2O1)=CC(=O)C(=O)C=3 [MB660, 7,8-dihydro-2,2-dimethyl-2H-naphtho(2,3-b)dihydropyran-7,8-dione]","HW/BW ratio, normal control group (SHAM), treated vs non-treated",FIG. 1,no significant difference
same,"HW/TL ratio, normal control group (SHAM), treated vs non-treated",FIG. 2,no significant difference
